Data published in PubChem BioAssay AID540303 (National Center for Advancing Translational Sciences (NCATS), 2011).
Screen size: about 330,000 compounds; about 1,000 (0.3%) were called active. Inconclusive results, whose numbers are uncertain, are shown with a selection of clear calls. Calls come from the whole dose curve; as a rule, active = well fitted inhibition curve with a large enough effect; inconclusive = small, poorly fitted or top-dose-only effect; inactive = no such curve, though single readings can be large or run the other way; tested in mouse RAW 264.7 cells. Potencies of inconclusive entries are doubtful fits and often do not repeat.

Experiment: qHTS for Inhibitors of Cell Surface uPA Generation; note: nearly all actives have a fitted effect of over 55% in size
Conditions: cell surface uPA generation assay; series mostly up to 38.3 µM
Outline: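 RAW 264.7, 4000 cells/well, o/n 37 C; cpd 1:5 dilution, up to 38.3 uM final; 24 h 37 C/5% CO2 with reagent; ATP-Lite lum. High ATP = LF entry blocked.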
Potency is the fitted concentration of half-maximal effect.

| Structure (SMILES) | Potency |
| --- | --- |
| Cc1cccc(C)c1NS(=O)(=O)c1ccc(NC(=O)c2ccc(Cl)c([N+](=O)[O-])c2)cc1 | inconclusive: 12.6 µM [inhibitor, single point] |
| Cc1nn(CC(=O)Nc2cccc(Cl)c2)c(=O)c2cc(-c3ccccc3)nn12 | inconclusive: 28.2 µM [inhibitor, single point] |
| CCOc1cccc2sc(N(CCN(C)C)C(=O)/C=C/c3cccs3)nc12 | inactive |
| CCCOc1ccc(CCC(=O)N/N=C/c2ccc([N+](=O)[O-])o2)cc1 | inconclusive: 6.31 µM [inhibitor, single point] |
| Cc1cccc(OCc2ccc(C(=O)Nc3cc(C)on3)o2)c1 | inactive |
| NC(=O)CC(NC(=O)c1ccccc1)c1ccc(N2CCC(Cc3ccccc3)CC2)c([N+](=O)[O-])c1 (centres undefined) | inconclusive: 10 µM [inhibitor, single point] |
| CCOC(=O)N1CCN(c2c(N3CCc4ccccc4C3)c(=O)c2=O)CC1 | inconclusive: 3.16 µM [inhibitor, partial curve, poor fit] |
| CC(C)(C)OC(=O)NCCCCCc1nnc(SCc2c(F)cccc2Cl)o1 | inactive |
| COc1ccc(OC)c(CN2CCC(Cc3ccccc3)CC2)c1 | inconclusive: 12.6 µM [inhibitor, single point] |
| CN(c1cccc(NC(=O)c2ccc(N(C)S(=O)(=O)c3ccccc3)cc2)c1)S(C)(=O)=O | inconclusive: 31.6 µM [inhibitor, partial curve, poor fit] |
| COc1ccc(NC(=O)C2C(c3ccccc3)C2(Cl)Cl)cc1 (centres undefined) | inconclusive: 0.316 µM [inhibitor, full curve, poor fit] |
| COc1ccccc1NC(=O)Nc1cccc(C)n1 | inconclusive: 12.6 µM [inhibitor, single point] |
| CNC(=O)c1c(NC(=O)c2cccc(N3C(=O)CCC3=O)c2)sc2c1CCC2 | inconclusive: 0.01 µM [inhibitor, full curve, poor fit] |
| FC(F)Oc1ccc(-c2c[n+]3c(n2-c2ccccc2)CCCCC3)cc1 | inconclusive: 3.55 µM [inhibitor, partial curve] |
| O=C(NNS(=O)(=O)c1ccc(F)cc1F)c1csc(-c2cccnc2)n1 | inactive |
| CC(Sc1nc2ccccc2c(=O)n1C)C(=O)Nc1ccc2c(c1)OCCO2 (centres undefined) | inconclusive: 3.98 µM [inhibitor, partial curve] |
| CC1CCCN(CCCNC(=O)c2ccc3c(c2)N(Cc2ccccc2F)C(=O)c2ccccc2S3(=O)=O)C1 (centres undefined) | inconclusive: 14.1 µM [inhibitor, single point] |
| Oc1c(CN2CCCCC2)cc(Br)c2cccnc12 | inconclusive: 11.2 µM [inhibitor, single point] |
| CCN(CC)C(=O)CSc1nnc(COc2ccccc2)n1N | inactive |
| CS(=O)(=O)N(Cc1ccc(C(=O)NN=C2CCCC2)cc1)c1ccccc1 | inactive |
| N/C(=N/O)c1ccccc1N1CCC(Cc2ccccc2)CC1 | inconclusive: 12.6 µM [inhibitor, single point] |
| COc1ccc(C(=O)Nc2ccc(-c3n[nH]c(=S)o3)cc2)cc1 | inconclusive: 7.94 µM [inhibitor, single point] |

In a second layout: 3 of the compounds above.
Structure (SMILES)	Potency
CN(c1cccc(NC(=O)c2ccc(N(C)S(=O)(=O)c3ccccc3)cc2)c1)S(C)(=O)=O	inconclusive: 31.6 µM [inhibitor, partial curve, poor fit]
COc1ccc(NC(=O)C2C(c3ccccc3)C2(Cl)Cl)cc1 (centres undefined)	inconclusive: 0.316 µM [inhibitor, full curve, poor fit]
COc1ccccc1NC(=O)Nc1cccc(C)n1	inconclusive: 12.6 µM [inhibitor, single point]

Remaining list, next part.

| Structure (SMILES) | Potency |
| --- | --- |
| COc1ncccc1-c1nnn(-c2ccc(F)cc2)n1 | inconclusive: 11.2 µM [inhibitor, partial curve] |
| Cc1cccc(N2CCN(C(=O)c3cccc(S(=O)(=O)N4CCc5ccccc5C4)c3)CC2C)c1 (centres undefined) | inconclusive: 10 µM [inhibitor, single point] |
| CCOC(=O)C1=C(C)NC(=O)NC1c1ccc([N+](=O)[O-])o1 (centres undefined) | inconclusive: 10 µM [inhibitor, single point] |
| COc1ccc(C(=O)NC(=S)NNC(=O)c2cnccn2)cc1OC | inconclusive: 2.51 µM [inhibitor, full curve] |
| COc1ccc(NC(=O)N(O)C2(C#N)CCCCC2)cc1 | inactive |
| CC(C)(C)C(=O)C(Cl)C(=O)Nc1ccccc1 (centres undefined) | inconclusive: 28.2 µM [inhibitor, single point] |
| CC(C)n1cc(CN2CCC(C(=O)Nc3ccc(Oc4ccccc4F)cc3)CC2)cn1 | inconclusive: 6.31 µM [inhibitor, single point] |
| CC(=O)NC(=S)NNC(=O)CCc1ccccc1 | inactive |
| COc1ccccc1C(=O)Nc1nnc(-c2ccc(F)cc2)o1 | inactive |
| Oc1ccc(-c2cn3ccccc3n2)cc1 | active: 3.98 µM |
| CCOc1ccc(S(=O)(=O)NCc2ccc3c(c2)OCO3)cc1NC(C)=O | inconclusive: 11.2 µM [inhibitor, partial curve, poor fit] |
| O=C(c1ccc2c(=O)n(CCc3ccccc3)c(=O)[nH]c2c1)N1CCN(c2ccc(F)cc2)CC1 | inactive |
| CC(C)=CCC/C(C)=C/C=N/NC(=O)c1ccc([N+](=O)[O-])cc1 | inconclusive: 7.94 µM [inhibitor, partial curve, poor fit] |
| COc1ccc(CCNC(=O)C2=CC=CN3CCS(=O)(=O)N=C23)cc1 | inconclusive: 12.6 µM [inhibitor, single point] |
| COc1ccc(NC(=O)c2ccc(COCC(F)(F)C(F)F)cc2)cc1 | inactive |
| Fc1ccc(Nc2nc(NCc3ccco3)c3ccccc3n2)cc1 | inconclusive: 8.91 µM [inhibitor, single point] |
| Cc1ccc2c(c1)C(=O)C(=O)N2Cc1ccc(Cl)cc1 | inconclusive: 5.01 µM [inhibitor, partial curve] |
| CC(C)(C)c1ccc(C(=O)Nc2ccc(NC(=O)C(=O)O)cc2)o1 | inactive |
| Cc1ccc2nc3c(cc2c1)c(NC(=O)c1cccnc1)nn3C | inactive |
| COc1ccc(-c2cc(=O)c3cc(C)ccc3[nH]2)cc1 | inconclusive: 1.78 µM [inhibitor, partial curve] |
| C/C(=N\NC(=O)c1c(Cl)cnn1C)c1cccc(NC(=O)c2ccc(C)cc2)c1 | inconclusive: 7.94 µM [inhibitor, partial curve, poor fit] |
| COc1cccc(CNC(=O)CNS(=O)(=O)c2ccc(Br)s2)c1 | inactive |
